{"source": "PubChem BioAssay AID540276", "about": "(National Center for Advancing Translational Sciences (NCATS), 2011)", "note": "In all, about 300,000 compounds went through this assay and about 5,400 (1.8%) were called active. Inconclusive means that the source gave no clear call. Such entries were picked first, then a sample of the others. Calls come from the whole dose curve; tested in HEK293 cells. Where the call is inconclusive, the potency comes from a doubtful curve fit. Potency is the fitted concentration of half-maximal effect.", "data": [{"assay": "qHTS for inhibitors of binding or entry into cells for Marburg Virus", "conditions": "Marburg virus pseudotyped entry inhibition, cell reporter; series mostly up to 37.8 µM", "values": [{"smiles": "Cc1ccc(NC(=O)c2cccc(S(=O)(=O)N3CCN(c4ccccc4)CC3)c2)nc1", "Potency": "inconclusive: 12.6 µM [inhibitor, partial curve, poor fit]"}, {"smiles": "COc1ccc(CC(=O)Nc2ccc(S(=O)(=O)Nc3nccs3)cc2)cc1", "Potency": "inactive"}, {"smiles": "CN1CCN(S(=O)(=O)c2ccc(NC(=S)NC(=O)C3CCCC3)cc2)CC1", "Potency": "inconclusive: 22.4 µM [inhibitor, single point]"}, {"smiles": "CCC(C)(C)n1nnnc1C(c1cc2cc(C)cc(C)c2[nH]c1=O)N1CCN(Cc2ccc3c(c2)OCO3)CC1", "note": "(stereo unspecified)", "Potency": "inactive"}, {"smiles": "CCN(CC)CCOC(=O)c1ccc(Nc2c3c(nc4ccccc24)CCC3)cc1", "Potency": "inconclusive: 7.08 µM [inhibitor, full curve, poor fit]"}, {"smiles": "CCC(C)Oc1ccc(/C=C/c2[nH]c(=O)[nH]c(=O)c2[N+](=O)[O-])cc1OC", "note": "(stereo unspecified)", "Potency": "inconclusive: 10 µM [inhibitor, partial curve, poor fit]"}, {"smiles": "CSc1n[nH]c(NCc2ccc(Cl)cc2)n1", "Potency": "inactive"}, {"smiles": "Clc1cccc(C2=NC(c3cccs3)=Nc3ccc(Br)cc3N2)c1", "Potency": "inactive"}, {"smiles": "CCN(C(=O)COC(=O)CNC(=O)C12CC3CC(CC(C3)C1)C2)C1CCS(=O)(=O)C1", "note": "(stereo unspecified)", "Potency": "inactive"}, {"smiles": "COc1ccc(Nc2ccc(OC)cc2)cc1", "Potency": "inconclusive: 7.94 µM [activator, partial curve, poor fit]"}, {"smiles": "CCOC(=O)c1cnc2ccc(C)cc2c1Sc1ccccc1", "Potency": "inactive"}, {"smiles": "CCN(CC)CCOC(=O)c1ccc(NC(=O)c2cc3c(s2)-c2ccccc2OC3)cc1", "Potency": "inconclusive: 7.08 µM [inhibitor, partial curve, poor fit]"}, {"smiles": "CC(C)(C)c1ccc(C(=O)NNC(=O)CCc2ccccc2)cc1", "Potency": "inactive"}, {"smiles": "O=C(/C(=C\\c1ccccc1)c1nc2ccccc2[nH]1)c1ccc(Cl)cc1", "Potency": "inconclusive: 35.5 µM [inhibitor, partial curve, poor fit]"}, {"smiles": "O=C(COC(=O)/C=C/c1ccccc1[N+](=O)[O-])NCC(F)(F)F", "Potency": "inconclusive: 32.6 µM [activator, partial curve, poor fit]"}, {"smiles": "O=C(Nc1ccc(-c2nc3ccccc3[nH]2)cc1)c1cccc(N2C(=O)CCC2=O)c1", "Potency": "inconclusive: 35.5 µM [activator, single point]"}, {"smiles": "CN(C)CC(C)(C)CNC(=O)C1CCN(Cc2ccccc2O)CC1", "Potency": "inconclusive: 17.8 µM [inhibitor, partial curve, poor fit]"}, {"smiles": "Cc1cc(OCCN2CCC(Cc3ccccc3)CC2)ccc1[N+](=O)[O-]", "Potency": "inconclusive: 35.5 µM [inhibitor, single point]"}, {"smiles": "CCN1CCN(C(=O)C2CCCN(S(=O)(=O)c3cc(Cl)ccc3Cl)C2)CC1", "note": "(stereo unspecified)", "Potency": "inconclusive: 1.26 µM [inhibitor, partial curve, poor fit]"}, {"smiles": "O=C(C1CCC1)N1CCC(c2nc3c(nnn3Cc3c(F)cccc3Cl)c(=O)[nH]2)CC1", "Potency": "inconclusive: 7.08 µM [inhibitor, full curve, poor fit]"}, {"smiles": "CCN(CC)S(=O)(=O)c1ccc2oc(C(=O)NCc3ccc(F)cc3)c(C)c2c1", "Potency": "inconclusive: 8.2 µM [inhibitor, partial curve, poor fit]"}, {"smiles": "CC(=O)N1CCN(c2ccc(NC(=O)c3cccc(Cl)c3)cc2)CC1", "Potency": "inconclusive: 3.55 µM [activator, partial curve, poor fit]"}, {"smiles": "CC1CC(C)CN(S(=O)(=O)c2ccc(C(=O)N3CCN(c4ccccc4)CC3)cc2)C1", "note": "(stereo unspecified)", "Potency": "inconclusive: 20.6 µM [inhibitor, single point]"}, {"smiles": "CCOc1ccc(C(C)=O)cc1CSc1nnc(N)s1", "Potency": "inconclusive: 35.5 µM [inhibitor, single point]"}, {"smiles": "Cc1ccc(NC(=S)N2CCCC(c3nc4ccc(C)cc4[nH]3)C2)c(C)c1", "note": "(stereo unspecified)", "Potency": "inconclusive: 32.6 µM [inhibitor, single point]"}, {"smiles": "C/C=C/Cn1c(SCc2ccccc2)nc2c1c(=O)[nH]c(=O)n2C", "Potency": "inconclusive: 0.224 µM [inhibitor, full curve, poor fit]"}, {"smiles": "CC1=NC(=O)C(C#N)C=C1c1ccncc1", "note": "(stereo unspecified)", "Potency": "inactive"}, {"smiles": "CSc1nc2ccccc2n1Cc1c(Cl)cccc1Cl", "Potency": "inconclusive: 22.4 µM [inhibitor, single point]"}, {"smiles": "O=C(O)c1ccc(-n2c(-c3ccccc3)n[nH]c2=S)cc1", "Potency": "inactive"}, {"smiles": "CC(C)Cn1c(=O)c2ccccc2n2c(CCC(=O)Nc3ccc(F)cc3)nnc12", "Potency": "inconclusive: 5.62 µM [inhibitor, single point]"}, {"smiles": "O=C(NCCCN1CCCC1=O)c1cc2nc(-c3ccco3)cc(C(F)(F)F)n2n1", "Potency": "inactive"}, {"smiles": "COC(=O)C1=C(C)NC(=O)C1(NS(=O)(=O)c1ccc(C)cc1)C(F)(F)F", "note": "(stereo unspecified)", "Potency": "inconclusive: 4.61 µM [activator, partial curve, poor fit]"}, {"smiles": "CCOC(=O)c1c(NC(=O)c2ccco2)sc2c1CCCCC2", "Potency": "inconclusive: 20.6 µM [inhibitor, single point]"}, {"smiles": "CC(C)Cc1nc(N2CCN(C(=O)c3ccco3)CC2)c(C#N)c2c1CCC2", "Potency": "inconclusive: 35.5 µM [inhibitor, single point]"}, {"smiles": "O=C(Nc1ccc(Cl)c(Cl)c1)Nc1cc(S(=O)(=O)N2CCOCC2)ccc1N1CCCC1", "Potency": "inconclusive: 29.1 µM [inhibitor, single point]"}, {"smiles": "Cc1nc(NCc2ccco2)c2c3c(sc2n1)CCC3", "Potency": "inconclusive: 31.6 µM [activator, single point]"}, {"smiles": "CCOc1ccc(NC(=O)Cn2nc(Cc3ccncc3)c3ccccc3c2=O)cc1", "Potency": "inconclusive: 14.1 µM [inhibitor, partial curve, poor fit]"}, {"smiles": "CCN(CC)C(c1ccc(F)cc1)c1nnnn1CC1CCCO1", "note": "(stereo unspecified)", "Potency": "inactive"}, {"smiles": "O=C(COc1ccccc1)Nc1ccc(S(=O)(=O)NCc2ccco2)cc1", "Potency": "inconclusive: 0.92 µM [inhibitor, full curve, poor fit]"}, {"smiles": "CCOc1cccc(CC(=O)N2CCc3c([nH]c4ccccc34)C2c2ccc(SC)cc2)c1OCC", "note": "(stereo unspecified)", "Potency": "inconclusive: 1.26 µM [inhibitor, partial curve, poor fit]"}, {"smiles": "O=C(NC1CCCC1)c1cc(-c2ccc(F)cc2)on1", "Potency": "inconclusive: 0.631 µM [activator, full curve, poor fit]"}, {"smiles": "CCOc1ccccc1C(=O)NCCCN1CCN(CCCNC(=O)c2ccccc2OCC)CC1", "Potency": "inactive"}, {"smiles": "C/C(=N\\NC(=O)c1ccoc1C)c1ccccc1", "Potency": "inconclusive: 0.562 µM [activator, full curve, poor fit]"}, {"smiles": "Cc1ccc(OCCCCN2CCc3ccccc3C2)cc1", "Potency": "inconclusive: 35.5 µM [inhibitor, single point]"}, {"smiles": "CC1CCCC(C)N1C(=O)CSc1nnc(-c2cccs2)o1", "note": "(stereo unspecified)", "Potency": "inconclusive: 29.1 µM [inhibitor, single point]"}, {"smiles": "CCOc1ccc(OC(=O)c2ccc3c(=O)n4c(nc3c2)CCC4)cc1", "Potency": "inconclusive: 1.58 µM [activator, partial curve]"}, {"smiles": "COc1ccccc1/C=C/c1nc(C#N)c(NCC(C)C)o1", "Potency": "inactive"}, {"smiles": "O=C(NCC(c1ccc(F)cc1)N1CCOCC1)c1ccc([N+](=O)[O-])o1", "note": "(stereo unspecified)", "Potency": "inconclusive: 20 µM [inhibitor, single point]"}, {"smiles": "CCOc1ccccc1NC(=O)CSc1nnc2ccc(-c3ccccn3)nn12", "Potency": "inactive"}, {"smiles": "CSc1cccc(CN2CCC(CO)(Cc3ccccc3)CC2)c1", "Potency": "inconclusive: 5.62 µM [activator, single point]"}, {"smiles": "COc1ccc(-c2cc3nc(-c4ccccc4)cc(N4CCC(O)CC4)n3n2)cc1", "Potency": "inconclusive: 35.5 µM [inhibitor, single point]"}, {"smiles": "O=C(CS(=O)CC(=O)N(CC(=O)NC1CCCC1)c1ccccc1F)Nc1ccc(F)cc1", "note": "(stereo unspecified)", "Potency": "inconclusive: 1 µM [activator, full curve, poor fit]"}, {"smiles": "COc1cc(C(=O)OCC(=O)NC(=O)NCc2ccccc2)ccc1OC(F)F", "Potency": "inactive"}, {"smiles": "Cc1cc(C)cc(N(C(=O)Cn2nnc3ccccc32)C(C(=O)NCc2ccco2)c2ccncc2)c1", "note": "(stereo unspecified)", "Potency": "inactive"}, {"smiles": "Clc1ccc(-c2noc3ncnc(NC4CCCCC4)c23)cc1", "Potency": "inconclusive: 3.16 µM [inhibitor, full curve]"}, {"smiles": "COc1ccccc1NC(=O)Cc1csc(NC(=S)Nc2ccccc2)n1", "Potency": "inconclusive: 11.6 µM [inhibitor, partial curve, poor fit]"}, {"smiles": "COc1ccccc1/C=C1\\SC(=S)N(CCC(=O)Nc2ccc(C(=O)O)c(O)c2)C1=O", "Potency": "inactive"}, {"smiles": "COc1ccc(OC)c(C2CC(=O)c3c([nH]c(C(=O)OCc4ccc(C)cc4)c3C)C2)c1", "note": "(stereo unspecified)", "Potency": "inconclusive: 0.562 µM [inhibitor, full curve, poor fit]"}, {"smiles": "Cc1ccc(OC(=O)CCC(=O)Oc2ccc(C)cc2C)c(C)c1", "Potency": "inactive"}, {"smiles": "COP(=O)(OC)c1nc(-c2cccc3ccccc23)oc1N1CCOCC1", "Potency": "inconclusive: 8.91 µM [inhibitor, partial curve, poor fit]"}, {"smiles": "Cc1ccccc1/C=N/NC(=O)CSc1nc2ccccc2o1", "Potency": "inconclusive: 10 µM [activator, partial curve]"}, {"smiles": "CCC1(C(=O)c2ccccc2)C(c2ccc([N+](=O)[O-])cc2)C1(C(=O)OC)C(=O)OC", "note": "(stereo unspecified)", "Potency": "inconclusive: 35.5 µM [activator, single point]"}, {"smiles": "O=C(N/N=C/c1ccccc1C(F)(F)F)c1ccc(O)cc1", "Potency": "inconclusive: 20 µM [activator, single point]"}, {"smiles": "CCOC(=O)Cc1ccc(NC(=O)c2ccc([N+](=O)[O-])cc2)cc1", "Potency": "inactive"}, {"smiles": "COc1ccc2sc(N(CCCN(C)C)C(=O)c3nc4ccccc4s3)nc2c1", "Potency": "inactive"}, {"smiles": "Cc1ccccc1OCCn1cc(C(=O)c2ccco2)c2ccccc21", "Potency": "inconclusive: 35.5 µM [inhibitor, partial curve, poor fit]"}]}]}
